PubChem BioAssay AID624291 (National Center for Advancing Translational Sciences (NCATS), 2012)
Screen size: about 350,000 compounds; about 220 (0.063%) were called active. This list was built around the results that the source calls inconclusive (neither active nor inactive); the mix of calls is not that of the screen. Calls come from the whole dose curve; as a rule, active = well fitted activation curve with a large enough effect; inconclusive = small, poorly fitted or top-dose-only effect; inactive = no such curve, though single readings can be large or run the other way. A potency beside an inconclusive call is a rough fit, not a confirmed value.

Assay: qHTS for Activators of Integrin-Mediated Alleviation for Muscular Dystrophy; note: nearly all actives have a fitted effect of over 60% in size;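 for activation: 100% = response of the positive control SU9516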
Settings: alpha7betagal myoblasts, beta-gal FDG fluorescence, 48 h; activation: at 38.3 µM (top of the series)
Method in brief: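 Alpha7betagal+/- myoblasts (passage 13) were plated 16-24 hr, then exposed to compounds (1:260 dilution of DMSO stock) for 48 hours at 37C. After MPER lysis, β-galactosidase reporter activity was read as FDG fluorescence (ex 480/em 540) after 30 minutes.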
Potency is the fitted concentration of half-maximal effect.

Row | Compound | Potency | activation
1 | CC(=O)N/C(=N/c1nc(C)cc(C)n1)Nc1ccc(C)cc1Cl | inconclusive: 28.2 µM [activator, partial curve, poor fit] | –
2 | COc1ccc(NC(=O)c2cc3ccc4c5ccccc5[nH]c4c3cc2O)cc1 | inconclusive: 5.01 µM [activator, single point] | –
3 | Oc1ccc2ccccc2c1C=NCc1ccccc1 | inconclusive: 7.94 µM [activator, partial curve, poor fit] | –
4 | Cc1ccc(S(=O)(=O)N(C)C)cc1NC(=O)c1cc(=O)[nH]c2ccccc12 | – | inactive: 20.3%
5 | CCn1c(=O)c(=O)n(CC)c2cc(S(=O)(=O)Nc3ccc(C)cc3)ccc21 | inconclusive: 2.82 µM [activator, single point] | –
6 | Cc1ccc(C)c(OCCC(=O)Nc2cc(S(=O)(=O)N3CCCCC3)ccc2C)c1 | – | inactive: -32.9%
7 | Nc1nc(Nc2ccc(Cl)cc2)c(NC=O)c(=O)[nH]1 | inconclusive: 28.2 µM [activator, single point] | –
8 | COc1ccc(NC(=O)NN2CCN(C)CC2)c(OC)c1 | inconclusive: 2.51 µM [activator, full curve, poor fit] | –
9 | COc1ccc(C(=O)N2N=C(c3cccc(OC)c3)CC2(O)C(F)(F)F)cc1 (stereo unspecified) | – | inactive: 1.57%
10 | CCCOc1ccccc1C1CC(=O)Nc2cc3c(cc21)OCO3 (stereo unspecified) | – | inconclusive: -56.7% [activator]
11 | Cc1ccc(N(CCC#N)C(=O)CSc2nc3ccccc3c(=O)[nH]2)cc1 | inconclusive: 28.2 µM [activator, single point] | –
12 | O=C(O)C1Cc2ccccc2CN1C(=O)CCl (stereo unspecified) | inconclusive: 20 µM [activator, single point] | –
13 | COc1ccc(N=Nc2ccc(O)c(P(=O)(c3ccccc3)c3ccccc3)c2)cc1 | inconclusive: 2 µM [activator, single point] | –
14 | Cc1sc2ncnc(SCC(=O)N3CCOCC3)c2c1C | inconclusive: 0.1 µM [activator, full curve, poor fit] | –
15 | CCc1c(C)sc(NC(=O)c2noc(C)c2[N+](=O)[O-])c1C#N | – | inactive: -5.1%
16 | CCOC(=O)N1CCN(C(=O)Cc2ccc(C)cc2)CC1 | – | inactive: -18.8%
17 | CCOC(=O)CC1(NC(=O)c2cc(COc3c(F)cccc3F)on2)CCCCC1 | inconclusive: 3.98 µM [activator, single point] | –
18 | Cc1nn(-c2ccccc2)c(C)c1NC(=O)COc1ccc(C#N)cc1 | – | inactive: -2.87%
19 | COc1ccc(NC(=O)C2CSC(C)(C)N2C=O)cc1 (stereo unspecified) | inconclusive: 28.2 µM [activator, single point] | –
20 | Cc1cccc(N(C(=O)CNC(=O)c2ccco2)C(C(=O)NCC2CCCO2)c2ccccc2)c1 (stereo unspecified) | inconclusive: 28.2 µM [activator, single point] | –
21 | Cc1ccc(NC(=O)CSc2nnc(COc3ccc(C#N)cc3)n2-c2ccccc2)cc1C | inconclusive: 6.31 µM [activator, partial curve, poor fit] | –
22 | Cc1ccccc1CN1CCN(C(=O)c2cc(-c3ccncc3)nc3ccccc23)CC1 | – | inactive: -20%
23 | Cc1onc(-c2ccccc2Cl)c1C(=O)O/N=C(\N)c1ccccc1 | inconclusive: 5.01 µM [activator, single point] | –
24 | Cc1ccnc(NC(=O)Nc2cccc(F)c2)n1 | inconclusive: 5.01 µM [activator, single point] | –

Row | Compound | Potency | activation
25 | CCOc1cc(C)c(S(=O)(=O)N2CCCCC2)cc1C | inconclusive: 5.62 µM [activator, partial curve] | –
26 | COc1cc(OC)nc(Oc2ccccc2/C=N/O)n1 | inconclusive: 2.82 µM [activator, single point] | –
27 | NC(=O)NC(CC(=O)OCC(=O)Nc1nnc(-c2ccccc2)o1)c1ccc(Cl)cc1 (stereo unspecified) | – | inactive: 2.84%
28 | O=C(CNC(=O)c1cccc(Br)c1)N/N=C/c1cccnc1 | inconclusive: 5.01 µM [activator, single point] | –
29 | CC(=O)Nc1ccc(N=C(C2=C(O)c3ccccc3C2=O)c2ccccc2)cc1 | – | inactive: -13%
30 | COc1ccc(OC)c(NC(=O)c2nc(-c3ccccc3)oc2C)c1 | inconclusive: 5.01 µM [activator, single point] | –
31 | CCOC(=O)C1=C(O)/C(=C/c2cn(CC(=O)N3CCCC3)c3ccccc23)SC1=Nc1ccccc1 | – | inactive: -32.6%
32 | O=c1[nH]c(NNC(=S)NC2CCCCC2)nc2c1C1(CCCC1)Cc1ccccc1-2 | inconclusive: 5.01 µM [activator, partial curve, poor fit] | –
33 | CC(OC(=O)CNC(=O)c1sc2ccccc2c1Cl)c1ccccc1 (stereo unspecified) | inconclusive: 28.2 µM [activator, single point] | –
34 | O=C(NNC1=NS(=O)(=O)c2ccccc21)c1ccc([N+](=O)[O-])cc1 | – | inactive: -11%
35 | CCOC(=O)c1ccc(N2C(=O)CC(SCC(=O)Nc3ccc(S(N)(=O)=O)cc3)C2=O)cc1 (stereo unspecified) | inconclusive: 28.2 µM [activator, partial curve, poor fit] | –
36 | COc1ccccc1NC(=O)c1ccc2nc(C)c(C)nc2c1 | inconclusive: 2.51 µM [activator, single point] | –
37 | O=C(NCCCn1cccn1)C1CCC(=O)N(Cc2cccc(C(F)(F)F)c2)C1 (stereo unspecified) | inconclusive: 2 µM [activator, partial curve, poor fit] | –
38 | O=C1OC(C(=O)Nc2ccccc2)Cc2ccccc21 (stereo unspecified) | inconclusive: 10 µM [activator, single point] | –
39 | COc1ccc([N+](=O)[O-])cc1NC(=O)c1ccco1 | inconclusive: 0.355 µM [activator, full curve, poor fit] | –
40 | Cc1cccc(/C=N/NC(=O)NC23CC4CC(CC(C4)C2)C3)n1 | inconclusive: 3.16 µM [activator, single point] | –
41 | COc1ccc(/C=C/C(=O)c2ccc([N+](=O)[O-])o2)cc1 | – | inactive: 6.72%
42 | Cc1ccc(OCC(=O)N(Cc2ccccc2)C(C)C)c([N+](=O)[O-])n1 | – | inactive: -0.766%
43 | CCCc1nc(SCC(=O)N2CCCC2)c2c(=O)n(C)c(=O)n(C)c2n1 | inconclusive: 15.8 µM [activator, single point] | –
44 | CCCCCn1c(N)c(-c2nc3ccccc3s2)c2c([N+](=O)[O-])nn(CC)c(=O)c21 | inconclusive: 35.5 µM [activator, partial curve, poor fit] | –
45 | O=C(NCc1ccccn1)c1cc2c(ccc3ccccc32)oc1=O | inconclusive: 1 µM [activator, partial curve, poor fit] | –
46 | N=C(N)SCC1=CCS(=O)(=O)C1 | inconclusive: 28.2 µM [activator, single point] | –
47 | COc1ccccc1OCC(=O)Nc1ccc2c(c1)n(C)c(=O)n2C | inconclusive: 15.8 µM [activator, single point] | –
48 | COc1ccc(OC)c(S(=O)(=O)N2CCC(C(=O)Nc3ccccc3)CC2)c1 | inconclusive: 2.24 µM [activator, single point] | –

One compound at a time, from the list above. Values in the order: Potency | activation
`Cc1cccc(/C=N/NC(=O)NC23CC4CC(CC(C4)C2)C3)n1` is listed as inconclusive: 3.16 µM [activator, single point] | –
`CCCCCn1c(N)c(-c2nc3ccccc3s2)c2c([N+](=O)[O-])nn(CC)c(=O)c21` is listed as inconclusive: 35.5 µM [activator, partial curve, poor fit] | –
`Cc1ccc(OCC(=O)N(Cc2ccccc2)C(C)C)c([N+](=O)[O-])n1` is listed as – | inactive: -0.766%
`CC(=O)Nc1ccc(N=C(C2=C(O)c3ccccc3C2=O)c2ccccc2)cc1` is listed as – | inactive: -13%

Later entries

Row | Compound | Potency | activation
49 | CN(C)c1ccc(/C=N/NC(=O)c2ccc(Cn3cc(Br)cn3)o2)cc1 | inconclusive: 5.62 µM [activator, single point] | –
50 | CCCCCn1c(=O)[nH]c2cc(C(=O)NCCCN(C)Cc3ccccc3)ccc2c1=O | inconclusive: 2.51 µM [activator, single point] | –
51 | Cc1ccc(C2=C(CC(=O)O)C(=O)CC2)cc1 | active: 4.47 µM | –
52 | O=C(NCCN1CCOCC1)C(=O)c1c[nH]c2ccccc12 | inconclusive: 5.01 µM [activator, single point] | –
53 | OC(COc1ccc(F)cc1)CN1CCN(c2ccccc2F)CC1 (stereo unspecified) | – | inactive: 25.9%
54 | Cc1ccccc1NC(=O)CSc1nc2ccccc2o1 | inconclusive: 4.47 µM [activator, single point] | –
55 | N#CC1c2ccccc2C=CN1C(=O)N(c1ccccc1)c1ccccc1 (stereo unspecified) | – | inactive: -56.3%
56 | OC1(c2cccs2)CN(c2ccc(Cl)cc2)C2=[N+]1CCCC2 (stereo unspecified) | – | inconclusive: -35.5% [activator]
57 | CC1CCCN(S(=O)(=O)c2ccc(C(=O)Nc3nnc(-c4ccccc4Cl)o3)cc2)C1 (stereo unspecified) | – | inactive: 0.5%
58 | Cc1cc(C(C)(C)C)ccc1OCCOCCN1CCCC1 | inconclusive: 20 µM [activator, single point] | –
59 | N#Cc1nc(COc2ccccc2F)oc1N1CCCCCC1 | inconclusive: 14.1 µM [activator, single point] | –
60 | N#Cc1ccccc1COC(=O)CCN=C1NS(=O)(=O)c2ccccc21 | inconclusive: 25.1 µM [activator, partial curve, poor fit] | –
61 | COc1ccc2nc(NCc3ccc(OC)c(OC)c3OC)sc2c1 | – | inactive: 0%
62 | O=C(NCc1ccccc1Cl)c1ccc(Cn2cc(C(F)(F)F)ccc2=O)cc1 | inconclusive: 2.82 µM [activator, partial curve, poor fit] | –
63 | Cc1ccc(NS(=O)(=O)c2ccc3c(c2)CCC(=O)N3)cc1C | – | inactive: -38.5%
64 | O=[N+]([O-])c1ccc(N=Cc2sc3ccccc3c2O)cc1 | inconclusive: 2.51 µM [activator, full curve, poor fit] | –
65 | S=c1[nH]nc(COc2ccccc2)n1/N=C/c1ccccn1 | – | inactive: -24.8%
66 | OCc1cn(-c2ccccc2)nc1-c1ccco1 | inconclusive: 5.01 µM [activator, full curve, poor fit] | –
67 | CC(OC(=O)c1ccco1)C(=O)Nc1ccc(Cl)cn1 (stereo unspecified) | – | inactive: -15.1%
68 | C=C[C@]1(C)C=C2CC[C@H]3[C@@](C)(CCC[C@@]3(C)C(=O)O)[C@@H]2CC1 | – | inactive: 23.3%
69 | O=C(NC(c1ccccc1)c1ccccc1)c1ccc(=O)[nH]n1 | – | inactive: -23.3%
70 | Cc1onc(-c2ccccc2Cl)c1C(=O)OCC(=O)N1CCCc2ccccc21 | – | inactive: -20%
71 | CC1(c2ccccc2)CC(C)(C)N(C(N)=O)c2ccccc21 (stereo unspecified) | inconclusive: 3.98 µM [activator, full curve, poor fit] | –
